Measurements taken from PubChem BioAssay AID493014 (National Center for Advancing Translational Sciences (NCATS), 2011).
This is one part of the list. These are further read-outs of the screen, such as a control signal, another cell line or another target. No call is given for them. Most of these compounds were active or inconclusive in the main read-out, so they are no random draw. The note in brackets gives the kind of curve behind each potency; many fits are weak.

Assay: qHTS Assay to Find Inhibitors of Chronic Active B-Cell Receptor Signaling
Conditions: ABC-DLBCL IkBa-CBG/CBR reporter, luminescence ratio (green luciferase fused to IkBa over red control in TMD8 lymphoma cells), 4 h
How it was run: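 TMD8 human ABC-DLBCL cells with doxycycline-inducible IκBα–green luciferase fusion and unfused red luciferase, in 0.5% FBS medium; compounds up to 46 uM, 4 h at 37C. Green/red luminescence ratio, filter-overlap corrected, fitted to concentration-response curves.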

[1] = measured here: CBR red luminescence, cell number
[2] = measured here: IkBa-CBG green luminescence

Compound | AC50 [1] | AC50 [2]
O=C(c1ccc2c(c1)N(Cc1ccc(F)cc1)CCS2)N1CCC2(CC1)OCCO2 | 15.8 µM [falling, partial curve, poor fit] | –
O=C(O)c1ccccc1Nc1cccc(C(F)(F)F)c1 | 12.6 µM [falling, single point] | –
Cc1cccc(C)c1NC1=NCCCCS1 | 29.1 µM [falling, single point] | –
COc1ccc2[nH]cc(CCN(C)C)c2c1 | 35.5 µM [falling, single point] | –
CCOC(=O)C1(c2ccccc2)CCN(CC(=O)Nc2cccc3ccccc23)CC1 | 9.2 µM [falling, partial curve, poor fit] | –
Nc1cc(Cl)c2nonc2c1[N+](=O)[O-] | 3.26 µM [falling, partial curve, poor fit] | –
NP(=O)(OCCCc1ccccc1)Oc1ccccc1Cl (stereo unspecified) | 3.55 µM [rising, partial curve, poor fit] | –
Cc1cc(=O)oc2cc(OCC(=O)N3C[C@H]4C[C@@H](C3)c3cccc(=O)n3C4)ccc12 | 35.5 µM [rising, single point] | –
O=C1NC(=O)N(c2ccccc2)C(=O)/C1=C/c1coc2ccc(O)cc2c1=O | 0.708 µM [rising, partial curve, poor fit] | –
O=[N+]([O-])c1ccc(-c2ccccc2)c([As](=O)(O)O)c1 | 17.8 µM [falling, partial curve, poor fit] | –
COc1ccc(CNCCc2ccc3c(c2)OCO3)c(OC)c1OC | 31.6 µM [rising, single point] | –
CCOC(=O)N(CC)c1ccc(C(O)(C(=O)OCC)C(F)(F)F)cc1 (stereo unspecified) | 0.447 µM [falling, partial curve, poor fit] | –
C=CCn1c(O)c(/C=N/NC(=O)c2ccncc2)c(=O)[nH]c1=O | 12.6 µM [falling, single point] | –
COc1cccc(OP(=O)(Nc2ccccc2)Oc2cccc(OC)c2)c1 | 35.5 µM [falling, single point] | –
COc1cccc(C2CCN(CC(=O)Nc3cc(Cl)ccc3OC)CC2O)c1 (stereo unspecified) | 22.4 µM [falling, single point] | –
CCCCn1c(O)c(C(C)=NCc2cc(OC)cc(OC)c2)c(=O)[nH]c1=O | 0.00461 µM [rising, full curve, poor fit] | –
CCN1CCN(C(=O)COc2ccc3c(c2)C(=O)CC2(CCN(C(C)=O)CC2)O3)CC1 | 6.51 µM [falling, single point] | –
O=C(N/N=C/c1c(O)n(C2CC2)c(=S)[nH]c1=O)c1ccccc1Cl | 4.47 µM [falling, partial curve] | –
COc1cccc(C(=O)C2CCCN(Cc3ccc4nonc4c3)C2)c1 (stereo unspecified) | 1.12 µM [rising, full curve, poor fit] | –
C/C(=N\NC(=O)c1ccc(CN2CCc3ccccc3C2)cc1)c1ccccc1O | 15.8 µM [falling, single point] | –
S=C=Nc1cccc(C2(N3CCCCC3)CCCCC2)c1 | 29.1 µM [falling, single point] | –

Compound | AC50 [1] | AC50 [2]
Oc1c(Br)c(Br)c(Br)c(Br)c1Br | 29.1 µM [falling, single point] | 16.4 µM [rising, partial curve, poor fit]
BrCC(Br)(Br)Br | 20.6 µM [falling, partial curve, poor fit] | –
Cc1ccc(N2C(=O)NC(=O)/C(=C\C=C\c3ccco3)C2=O)cc1 | 35.5 µM [rising, single point] | 35.5 µM [falling, single point]
FC(F)(F)Oc1ccc(C2NCc3ccccc3-n3cccc32)cc1 (stereo unspecified) | 8.91 µM [rising, partial curve, poor fit] | –
CCCCn1c(=O)c(C(=O)Nc2ccccc2N)c(O)c2ccccc21 | 2.24 µM [falling, partial curve] | 25.1 µM [rising, partial curve, poor fit]
Cc1nccc2c1[nH]c1ccc(Br)cc12 | 23.1 µM [rising, single point] | –
CCCCC(=O)N/N=C/c1c(O)n(-c2cccc3ccccc23)c(=O)[nH]c1=O | 0.891 µM [rising, full curve, poor fit] | –
Cc1cccc(-n2c(-c3cccs3)nc3ccccc3c2=O)c1 | 5.8 µM [rising, single point] | –
CCN(CC)CCCNC1=C(Cl)C(=O)c2ccccc2C1=O | 22.4 µM [falling, single point] | –
CC(=O)O[C@H]1[C@H]2O[C@]23[C@@H]2CC[C@]4(O)C[C@@H](O)CC[C@]4(C)C2CC[C@]3(C)[C@H]1c1ccc(=O)oc1 (stereo partly specified) | 5.8 µM [falling, full curve, poor fit] | –
CCCCC/C(=N/O)c1c(C)[nH]c2ccccc12 | 35.5 µM [rising, single point] | –
O=C(NC1CCCCCC1)c1ccc[nH]c1=S | 10 µM [falling, partial curve, poor fit] | –
CC(=Nc1ccccc1N)c1c(O)n(C)c(=O)[nH]c1=O | – | 14.1 µM [rising, partial curve, poor fit]
CCN1CCN(S(=O)(=O)c2cnc(Cl)c(Br)c2)CC1 | 7.31 µM [falling, partial curve] | –
CCC(=O)c1ccc(OC(=O)N(C)c2ccccc2)cc1 | 14.1 µM [rising, single point] | –
CC(=O)c1cn(Cc2ccccc2C#N)c2ccccc12 | 1.78 µM [rising, partial curve, poor fit] | –
CN1CCN(c2ccc([N+](=O)[O-])c(Sc3ccccn3)c2)CC1 | 35.5 µM [falling, single point] | –
O=c1[nH]c(=O)n(Cc2ccccc2)c(O)c1C=NCCN1CCNCC1 | 25.9 µM [falling, single point] | –
CC(=O)OC1C=CC2[C@H]3Cc4ccc(O)c5c4[C@@]2(CCN3C)C1O5 (stereo partly specified) | 1.64 µM [rising, full curve, poor fit] | –
COc1ccc(-n2c(/C=C/c3ccc(O)c(O)c3)nc3ccccc3c2=O)cc1 | 7.94 µM [falling, partial curve, poor fit] | –
O=C(O)c1cccc(N=Nc2c(O)[nH]c(=O)[nH]c2=O)c1 | 1.58 µM [falling, full curve] | –

Compound | AC50 [1] | AC50 [2]
Cn1cc(C(=O)OCC(=O)Nc2ccccc2)c2ccccc21 | 9.2 µM [falling, partial curve] | –
O=C(NNC(=O)c1ccccn1)c1cccc([N+](=O)[O-])c1 | 11.2 µM [falling, partial curve, poor fit] | –
COc1ccc(-c2csc(NC(=S)NC(=O)/C=C/c3ccco3)n2)cc1Br | 1.78 µM [rising, partial curve, poor fit] | –
O=P1(Nc2ccc(F)cc2)COc2ccccc2OC1 | 14.1 µM [falling, partial curve, poor fit] | –
Cc1nn(Cc2ccccc2Cl)c(C)c1C(=O)NC1CCCc2ccccc21 (stereo unspecified) | 6.51 µM [rising, single point] | –
CCC1(OC(=O)CN)C(=O)OCc2c1cc1n(c2=O)Cc2cc3ccccc3nc2-1 (stereo unspecified) | 1 µM [falling, full curve] | –
O=C(NC(O)C(=O)c1ccccc1)c1ccc(F)cc1 (stereo unspecified) | 22.4 µM [falling, single point] | –
COC(=O)C1=C(c2ccc(Cl)c(C(F)(F)F)c2)C[C@@H]2CC[C@H]1N2C(=O)NCc1cc(C)oc1C(F)(F)F | 14.6 µM [falling, partial curve, poor fit] | –
COc1ccc(NC(=O)c2c(C)nn(Cc3ccccc3Cl)c2Cl)cc1Cl | 1.03 µM [rising, full curve, poor fit] | –
CCCOC(=O)c1ccc(-[n+]2c(-c3ccccc3)cc(-c3ccccc3)cc2-c2ccccc2)cc1 | 32.6 µM [falling, single point] | –
Cc1cccc(N2C(=O)/C(=C/c3ccc(N4CCN(C)CC4)o3)C(=O)NC2=S)c1C | 29.1 µM [rising, single point] | –
CC(=O)c1csc(Nc2ccccc2Cl)n1 | 3.98 µM [falling, partial curve, poor fit] | –
COc1ccc(-c2noc(-c3ccc(Br)o3)n2)cc1 | 2 µM [rising, full curve, poor fit] | –
CCOCCOC(=O)c1[nH]c2c(c1C)C(=O)CC(c1ccc(OC)c(OC)c1)C2 (stereo unspecified) | 22.4 µM [falling, single point] | –
COc1ccc(C(=O)Oc2cccc3cccnc23)cc1S(=O)(=O)N1CCOCC1 | 20 µM [falling, single point] | 11.2 µM [falling, partial curve]
COc1cc([N+](=O)[O-])c(OC)cc1SCc1n[nH]c(=S)n1-c1ccc(C)cc1 | 10 µM [rising, partial curve, poor fit] | –
CC1(C)OC(c2ccccc2)=C/C(=C/C=C2C(=O)NC(=O)NC2=O)O1 | 3.55 µM [falling, full curve] | –
CN1CCCC(C(O)(c2ccccc2)c2ccccc2)C1 (stereo unspecified) | 35.5 µM [falling, single point] | –
Cc1cc(/C=C2\C(=O)NC(=O)N(c3ccc(Cl)cc3)C2=O)c(C)n1-c1cccc(C(=O)O)c1 | 1.58 µM [rising, single point] | –
CN1C(=O)C(=Cc2ccccc2OCc2ccc(Cl)cc2)C(=O)N(C)C1=O | 0.082 µM [rising, full curve, poor fit] | –

Part of the list above, as tab-separated lines:
Compound	AC50 [1]	AC50 [2]
COc1ccc(-n2c(/C=C/c3ccc(O)c(O)c3)nc3ccccc3c2=O)cc1	7.94 µM [falling, partial curve, poor fit]	–
Cn1cc(C(=O)OCC(=O)Nc2ccccc2)c2ccccc21	9.2 µM [falling, partial curve]	–
O=C(NNC(=O)c1ccccn1)c1cccc([N+](=O)[O-])c1	11.2 µM [falling, partial curve, poor fit]	–
COc1ccc(-c2csc(NC(=S)NC(=O)/C=C/c3ccco3)n2)cc1Br	1.78 µM [rising, partial curve, poor fit]	–
O=P1(Nc2ccc(F)cc2)COc2ccccc2OC1	14.1 µM [falling, partial curve, poor fit]	–
Cc1nn(Cc2ccccc2Cl)c(C)c1C(=O)NC1CCCc2ccccc21 (stereo unspecified)	6.51 µM [rising, single point]	–
O=C(NC(O)C(=O)c1ccccc1)c1ccc(F)cc1 (stereo unspecified)	22.4 µM [falling, single point]	–
COC(=O)C1=C(c2ccc(Cl)c(C(F)(F)F)c2)C[C@@H]2CC[C@H]1N2C(=O)NCc1cc(C)oc1C(F)(F)F	14.6 µM [falling, partial curve, poor fit]	–
COc1ccc(NC(=O)c2c(C)nn(Cc3ccccc3Cl)c2Cl)cc1Cl	1.03 µM [rising, full curve, poor fit]	–
CCCOC(=O)c1ccc(-[n+]2c(-c3ccccc3)cc(-c3ccccc3)cc2-c2ccccc2)cc1	32.6 µM [falling, single point]	–
Cc1cccc(N2C(=O)/C(=C/c3ccc(N4CCN(C)CC4)o3)C(=O)NC2=S)c1C	29.1 µM [rising, single point]	–
CC(=O)c1csc(Nc2ccccc2Cl)n1	3.98 µM [falling, partial curve, poor fit]	–
COc1ccc(-c2noc(-c3ccc(Br)o3)n2)cc1	2 µM [rising, full curve, poor fit]	–
CCOCCOC(=O)c1[nH]c2c(c1C)C(=O)CC(c1ccc(OC)c(OC)c1)C2 (stereo unspecified)	22.4 µM [falling, single point]	–
COc1ccc(C(=O)Oc2cccc3cccnc23)cc1S(=O)(=O)N1CCOCC1	20 µM [falling, single point]	11.2 µM [falling, partial curve]
COc1cc([N+](=O)[O-])c(OC)cc1SCc1n[nH]c(=S)n1-c1ccc(C)cc1	10 µM [rising, partial curve, poor fit]	–
CC1(C)OC(c2ccccc2)=C/C(=C/C=C2C(=O)NC(=O)NC2=O)O1	3.55 µM [falling, full curve]	–
Cc1cc(/C=C2\C(=O)NC(=O)N(c3ccc(Cl)cc3)C2=O)c(C)n1-c1cccc(C(=O)O)c1	1.58 µM [rising, single point]	–
CN1C(=O)C(=Cc2ccccc2OCc2ccc(Cl)cc2)C(=O)N(C)C1=O	0.082 µM [rising, full curve, poor fit]	–
